PubChem BioAssay AID2685 (National Center for Advancing Translational Sciences (NCATS), 2010)
The whole screen tested about 320,000 compounds, of which about 2,100 (0.66%) were called active. Inconclusive means that the source gave no clear call. Such entries were picked first, then a sample of the others. The call rests on the fitted dose curve; in most records, active means well fitted inhibition curve with a large enough effect in the signal ratio, with a control signal flat (not every such curve was filed as active); inconclusive means small, poorly fitted or top-dose-only effect, or effect the other way, or a change in a side signal; inactive means flat fitted curve, though single readings scatter; the % refers to the signal ratio. A potency beside an inconclusive call is a rough fit, not a confirmed value.

Experiment: qHTS Assay for Lipid Storage Modulators in Drosophila S3 Cells
Conditions: BODIPY lipid droplet fluorescence, 18-24 h, cells fed with added oleic acid; lipid storage change, negative = inhibition: at 46.1 µM (top of the series) unless noted
Outline: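 Laser-scanning cytometry quantifies lipid droplet accumulation (500–530 nm total intensity; droplet/cell object ratio) in oleic acid-fed (400 uM added) Drosophila S3 cells treated with a concentration series. 20 uM Triacsin C defined 100% inhibition.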
On the % scale 0 is the no-effect control and ±100 the full control effect; potency means the concentration at half of the fitted maximal effect.

Row | SMILES | Potency | lipid storage change, negative = inhibition
1 | COc1ccc(/C=c2\sc3nc(=O)c(C)nn3c2=O)c(OC)c1 | inconclusive: 4.11 µM [falling, single point] | –
2 | C=CCOc1c(Cl)cc(C(=S)N2CCCC2)cc1OCC | inconclusive: 29.1 µM [falling, single point] | –
3 | CCC(Cc1ccccc1)NC(=O)/C=C/c1ccco1 (stereo unspecified) | – | inconclusive: 2.92%
4 | CC(=O)n1cc([C@@H]2C=C(C(=O)NCc3ccccc3)O[C@H](OCCCCO)C2)c2ccccc21 | – | inactive
5 | COc1cc(/C=C/c2ccc3cccc(O)c3n2)cc(Br)c1OC | inconclusive: 29.1 µM [rising, single point] | –
6 | COc1ccc(CCN2C(=O)NC(NC(=O)CCc3ccccc3)(C(F)(F)F)C2=O)cc1OC (stereo unspecified) | inconclusive: 0.82 µM [falling, full curve, poor fit] | –
7 | CCn1c(C(C)NC(C)=O)nc2ccccc21 (stereo unspecified) | – | inconclusive: -14.2%
8 | O=C(O)/C=C/C(=O)Nc1ccc(Oc2ccc(NC(=O)/C=C/C(=O)O)cc2)cc1 | – | inconclusive: -0.259%
9 | CCOC(=O)C1=C(CN2CCC(C)CC2)NC(=O)NC1c1ccc(Cl)cc1 (stereo unspecified) | inconclusive: 0.326 µM [activator, partial curve] | –
10 | CC1(C)Cc2c(cnn2-c2cccc(F)c2)C(NC(=O)C2CCOCC2)C1 (stereo unspecified) | inconclusive: 18.4 µM [falling, single point] | –
11 | Cc1c(/C=N/N2C(=O)C3C4C=CC(C4)C3C2=O)c2ccccc2n1C (stereo unspecified) | inconclusive: 14.6 µM [activator, single point] | –
12 | CC(C)C(C(=O)OCC(=O)c1ccc2c(c1)NC(=O)CO2)N1C(=O)c2ccccc2C1=O (stereo unspecified) | inconclusive: 29.1 µM [falling, single point] | –
13 | CCCCn1c(N)c(N(CC(C)C)C(=O)c2cc(-c3ccc(F)cc3)nc3ccccc23)c(=O)[nH]c1=O | inconclusive: 23.1 µM [falling, partial curve, poor fit] | –
14 | CC(C)CN(C(=O)COC(=O)CCN1C(=O)c2ccccc2C1=O)C1CCS(=O)(=O)C1 (stereo unspecified) | inconclusive: 0.461 µM [activator, full curve, poor fit] | –
15 | CCN(CC(=O)Nc1c(F)cccc1F)C(=O)Cn1c(=O)cnc2ccccc21 | – | inconclusive: 81.1%
16 | O=C(Nc1ccccc1Cl)NC1(C(=O)NCCCN2CCOCC2)CCCCC1 | – | inconclusive: -11.8%
17 | N#CCSc1ccccc1NC(=O)COC(=O)Cc1c[nH]c2ccccc12 | inconclusive: 29.1 µM [activator, single point] | –
18 | COCCN(Cc1ccc(C)c(Br)c1)C(=O)Cn1cnc(S(=O)(=O)N2CCCC2)c1 | – | inconclusive: 3.91%
19 | Cc1cc(/C=C2\Sc3ccccc3N2C)cc(C)[n+]1CC1CCCO1 (stereo unspecified) | inconclusive: 0.206 µM [falling, full curve, poor fit] | –
20 | O=C(COc1ccc(Cl)cc1Cl)NN1C(=O)C2C3C=CC(C3)C2C1=O (stereo unspecified) | – | inconclusive: 12.3%
21 | CCOC(=O)CCCNC(=O)COc1ccccc1C#N | – | inconclusive: -22%
22 | CCCCCC(=O)N=Nc1c(O)[nH]c2ccc([N+](=O)[O-])cc12 | – | inconclusive: 12.1%
23 | Cc1ccccc1C(=O)NNC(=O)c1ccc(Br)cc1 | – | inconclusive: 5.03%
24 | CCCCN1C(=O)C(O)(CC(=O)c2c(C)coc2C)c2ccccc21 (stereo unspecified) | – | inconclusive: 128%
25 | CC1CCc2c(nc3nc[nH]n3c2=O)C1 (stereo unspecified) | – | inconclusive: -36.9%
26 | CCOc1cc(/C=C(\C#N)C(=O)Nc2ccccn2)ccc1O | – | inconclusive: -73.5%

Of the compounds above, 3 contain bromine.
Row | SMILES | Potency | lipid storage change, negative = inhibition
5 | COc1cc(/C=C/c2ccc3cccc(O)c3n2)cc(Br)c1OC | inconclusive: 29.1 µM [rising, single point] | –
18 | COCCN(Cc1ccc(C)c(Br)c1)C(=O)Cn1cnc(S(=O)(=O)N2CCCC2)c1 | – | inconclusive: 3.91%
23 | Cc1ccccc1C(=O)NNC(=O)c1ccc(Br)cc1 | – | inconclusive: 5.03%

(cont.)

Row | SMILES | Potency | lipid storage change, negative = inhibition
27 | COc1cc([N+](=O)[O-])ccc1NC(=O)NN1CCN(C)CC1 | – | inconclusive: 15.2%
28 | O=C(/C=C/c1ccc(Cl)cc1)Nc1ccc(S(=O)(=O)Nc2ncccn2)cc1 | – | inconclusive: -8.88%
29 | O=C(NCCc1ccccc1)C1CCCN1C(=O)Nc1ccccc1 (stereo unspecified) | – | inconclusive: 11.4%
30 | Cn1c2ccccc2c(=O)c2cc(C#Cc3ccsc3)ccc21 | inconclusive: 4.61 µM [falling, full curve, poor fit] | –
31 | CCOc1ccccc1NC(=O)Cn1ncc2ccc([N+](=O)[O-])cc21 | – | inconclusive: 19.8%
32 | CCN(CC)S(=O)(=O)c1cc(NC(=O)NCCCl)ccc1C | – | inconclusive: 10.4%
33 | COc1ccc(S(=O)NC2CCCCC2)c(OC)c1C (stereo unspecified) | – | inconclusive: -8.11%
34 | Cc1cc(C(=O)NCc2cccs2)n(-c2ccccc2)n1 | – | inconclusive: -11.7% [at 9.22 µM]
35 | COc1ccccc1CNC(=O)c1cc(C)nn1-c1ccccc1 | – | inconclusive: 19.4%
36 | CCCC(=O)Nc1ccc(C(=O)NNC(=S)NC(=O)c2cccs2)cc1 | – | inconclusive: 28.2%
37 | C=C1C(C(=O)N2CCN(C)CC2)C1C(=O)N1CCN(C)CC1 (stereo unspecified) | – | inconclusive: -50.1%
38 | COc1ccc(NC(=O)C2CCCCN2N)cc1OC (stereo unspecified) | – | inactive
39 | CC(C)(C)Cc1cc(N)on1 | inconclusive: 29.1 µM [rising, single point] | –
40 | C=CCN1C(=O)C(C(C)CC)NC1=S (stereo unspecified) | active: 7.31 µM | –
41 | COc1ccc(/C=C2\SC(=S)N(CCC(=O)NCCCN3CCOCC3)C2=O)cc1 | – | inconclusive: 36%
42 | COc1ccccc1N(CN1CCCC1=O)C(=O)COc1ccccc1 | – | inconclusive: 16.1%
43 | CC1CCCCC12NC(=O)N(CC(=O)N1CCN(C(=O)c3ccco3)CC1)C2=O (stereo unspecified) | – | inconclusive: -6.29%
44 | Cc1ccc(CCNC(=O)c2nc(CS(=O)(=O)c3ccc(Cl)cc3)no2)cc1 | inconclusive: 6.51 µM [activator, single point] | –
45 | Cc1cc(=O)n(CCCc2ccccc2)[nH]1 | inconclusive: 0.731 µM [activator, full curve, poor fit] | –
46 | O=C(Nc1ccc(N2C(=O)CCC2=O)cc1Cl)c1cccs1 | – | inconclusive: 36.6%
47 | O=C(Cn1nnc(-c2ccncc2)n1)N1CCc2ccccc21 | – | inconclusive: 0.0467%
48 | Cc1ccc(NC(=O)COC(=O)CCC(=O)c2cccs2)c(C)c1 | – | inconclusive: -37.6%
49 | N#CC1=C(N)OC2=C(C(=O)CC(c3ccccc3)C2)C1c1ccc2c(c1)OCO2 (stereo unspecified) | – | inconclusive: 21%
50 | CCN(CC)S(=O)(=O)c1ccc2oc(Nc3ccc(OC)cc3OC)nc2c1 | inconclusive: 0.259 µM [activator, full curve] | –
51 | COC(=O)[C@@H]1CC[C@H](C)[C@@H](c2ccc(C)cc2)N1C(=O)c1ccc(/C=N/OCC[C@@H]2C=C[C@H](OC(C)=O)[C@@H](COC(C)=O)O2)cc1 | – | inconclusive: 7.22%
52 | CCc1nnc(NS(=O)(=O)c2ccc(NC(=S)NC(=O)c3ccc(OC)c(OC)c3)cc2)s1 | – | inconclusive: -8.61%

Exported comma-delimited: part of the list above.
Row,SMILES,Potency,"lipid storage change, negative = inhibition"
50,CCN(CC)S(=O)(=O)c1ccc2oc(Nc3ccc(OC)cc3OC)nc2c1,"inconclusive: 0.259 µM [activator, full curve]",–
51,COC(=O)[C@@H]1CC[C@H](C)[C@@H](c2ccc(C)cc2)N1C(=O)c1ccc(/C=N/OCC[C@@H]2C=C[C@H](OC(C)=O)[C@@H](COC(C)=O)O2)cc1,–,inconclusive: 7.22%
52,CCc1nnc(NS(=O)(=O)c2ccc(NC(=S)NC(=O)c3ccc(OC)c(OC)c3)cc2)s1,–,inconclusive: -8.61%

Additional compounds:

Row | SMILES | Potency | lipid storage change, negative = inhibition
53 | CCCn1c(CN2CCN(C(=O)OCC)CC2)nc2c1c(=O)n(C)c(=O)n2C | – | inconclusive: -7.82%
54 | CC1(C)CC(=O)C2=C(C1)N(C1CCCCC1)C(=O)C2(O)C(F)(F)F (stereo unspecified) | – | inconclusive: 4.68%
55 | CCCCNC(=O)NNC(=O)COc1cc(C)cc(C)c1 | inconclusive: 6.51 µM [falling, partial curve, poor fit] | –
56 | Cc1ccc(C(=O)OC(C)C(=O)Nc2ccc(Cl)cn2)s1 (stereo unspecified) | – | inconclusive: -31.4%
57 | CN1CCN(CCCCOc2ccc(F)cc2)CC1 | – | inconclusive: 8.61%
58 | CCCc1c(O)nc(SC2CC(=O)N(c3ccc(OC)cc3)C2=O)[nH]c1=O (stereo unspecified) | inconclusive: 2.06 µM [activator, partial curve] | –
59 | Cc1cc(C(=O)N2CCN(S(C)(=O)=O)CC2)sc1-c1ccccc1 | – | inconclusive: -0.25%
60 | CCOc1cc(/C=N/n2cnnc2)cc(Br)c1O | inconclusive: 1.03 µM [activator, partial curve, poor fit] | –
61 | CCN(CC)C1CCN(Cc2cn[nH]c2-c2ccc(OC)c(F)c2)C1 (stereo unspecified) | – | inactive
62 | COc1cc(/C=C2\CC/C(=C\c3ccc(OCCO)c(OC)c3)C2=O)ccc1OCCO | active: 16.4 µM | –
63 | CNS(=O)(=O)c1ccc(N2CCCC2)c([N+](=O)[O-])c1 | – | inconclusive: -0.0974%
64 | CCN1CCN(CC(=O)Nc2ccc3c(c2)OCCO3)C(=O)C1=O | inconclusive: 1.3 µM [falling, full curve, poor fit] | –
65 | CCCCOc1ccc(C(=O)OCC(=O)Nc2cc(C)on2)cc1 | – | inconclusive: -11.9%
66 | CCOc1ccc(NC(=O)Nc2ccccc2SC)cc1 | – | inconclusive: -16.6%
67 | CC(C)CN(C(=O)COC(=O)CCCc1c[nH]c2ccccc12)c1c(N)n(Cc2ccccc2)c(=O)[nH]c1=O | – | inconclusive: -38.9%
68 | CC(C)CC(=O)Nc1cccc(C(C)O)c1 (stereo unspecified) | – | inconclusive: 5.08%
69 | Cc1c(C(=O)N/N=C/c2cccs2)nnn1-c1nonc1N | – | inconclusive: 21.2%
70 | Cc1ccc(/C=C2\NC(=S)NC2=O)cc1[N+](=O)[O-] | – | inconclusive: -10.3%
71 | C=CCN(c1ccccc1Cl)S(=O)(=O)c1cccc(C(=O)NCCc2ccc(OC)cc2)c1 | – | inconclusive: 9.07%
72 | CCCc1c(C(=O)N/N=C(\C)CCc2ccccc2)nnn1-c1nonc1N | inconclusive: 20.6 µM [falling, single point] | –
73 | NC(=O)C1CCN(c2oc(/C=C/c3ccccc3)nc2S(=O)(=O)c2ccccc2)CC1 | inconclusive: 5.8 µM [falling, partial curve, poor fit] | –
74 | Cc1[nH]n(-c2ccccc2)c(=O)c1/C=N/N1C(=O)c2cccc3cccc(c23)C1=O | – | inconclusive: -25.4%
75 | CCc1nccn1S(=O)(=O)c1ccc(C)c(C)c1 | inconclusive: 0.651 µM [cytotoxic, full curve, poor fit] | –
76 | O=C1CCCC(=O)C1=Cc1c[nH]c2ccccc12 | inconclusive: 0.517 µM [falling, full curve] | –
